These are yes or no findings as the source states them, for the method shown. Binding can be weak; no strength is given. Tags and fused reporters may be left off the sequences shown.
Molecular target: REV7^WT-SHLD3(1–82) (human)
Experiment: SEC; Superdex 200 Increase 10/300 GL, 20 mM Tris/HCl pH 8.0, 150 mM NaCl, 1% glycerol, 1 mM TCEP; proteins mixed and incubated 10 min on ice; 0.5 ml fractions on SDS-PAGE, Coomassie; both purified

B1: MBP-REV3(1847–2021) (domain or fragment, UniProt O60673 1847-2021)
chain: MLTPTPDSSPRSTSSPSQSKNGSFTPRTANILKPLMSPPSREEIMATLLDHDLSETIYQEPFCSNPSDVPEKPREIGGRLLMVETRLANDLAEFEGDFSLEGLRLWKTAFSAMTQNPRPGSPLRSGQGVVNKGSSNSPKMVEDKKIVIMPCKCAPSRQLVQVWLQAKEEYERSKK
For B1, the binding was “binds”.
